This is an account of results in PubChem BioAssay AID1347426 (Functional Genomics Laboratory (NCATS/FGL), 2020).

In all, about 31,000 sequences went through this assay and about 1,400 (4.5%) were called active.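 Rule for the calls: active = median seed-adjusted z-score above 1 or below -1; inactive = the rest.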 The list shows a part of the results.

This experiment can be described thus: Novel Modifiers of Survival Motor Neuron (SMN) Protein: Gene Identification via Genome-wide siRNA Screen.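 Note: luminescence tracks full-length SMN protein made from the SMN2 reporter.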 The settings on record: HEK293T SMN2-luciferase reporter, siRNA knockdown, 72 h; actives lie on both sides. An outline of the steps: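 HEK293T cells stably carrying an SMN2 promoter/splicing cassette–luciferase reporter were reverse-transfected with 1 pmol siRNA per well (druggable-genome library, 3 siRNAs per gene) and grown 72 h at 37 °C. Luminescence, normalized to negative-control siRNA and log10-transformed, was scored as MAD.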
For CAUGGAAUCUUAUGAACUUTT against MGP, the median seed-adjusted z-score is inactive: -0.0854.

For GGUUGCAACUCAUGAGAUUTT against MMP26, the median seed-adjusted z-score is inactive: 0.0881.

Regarding GACCCUUACAGGAUUGAAATT against CDC23, the median seed-adjusted z-score was inactive: 0.0112.

Consider GCUCAGCUUAAGUCCCUGATT against DCTN1, for which the median seed-adjusted z-score is inactive: 0.25.

For the sequence GGACAUGCACUAUUACCAATT against RRAGB, the median seed-adjusted z-score is inactive: 0.

CAGCGAAUGUAACAGUACATT against FAT1: the median seed-adjusted z-score was inactive: -0.00397.

Consider CCGCCCAAGUAGUAAAGAATT against ADCY3, for which the median seed-adjusted z-score is inactive: -0.294.

For the sequence CUGAGUAACUGUGCCCGGATT against RXFP4, the median seed-adjusted z-score is inactive: -0.315.

For the sequence GCUGAGUCUUUCACCAAUATT against CCNO, the median seed-adjusted z-score is inactive: -0.594.

Take GCAUCAGGUUUGUCACCUATT against ASTL: the median seed-adjusted z-score was inactive: 0.722.

As to GAACAAAUCUGCGAGAUCATT against DIRAS2, the median seed-adjusted z-score is active: -1.25.

As for CCUAUAGACGUGGAAAUAATT against PCDHGA7, the median seed-adjusted z-score was inactive: 0.705.

GAGAAUCACUCCAAUCGAATT against HIPK2: the median seed-adjusted z-score is inactive: 0.156.

With CUGCAUCACCUGUAUCUAUTT against EGLN2, the median seed-adjusted z-score was inactive: -0.349.

Take GAACUGUCGUAAACGCAAATT against NFE2L3: the median seed-adjusted z-score was inactive: 0.118.

Take GCUUCAUCAGUAACAAUCATT against TMEM123: the median seed-adjusted z-score was inactive: 0.292.

Take GCAUAGAUCCUGGUUCCCATT against ZNF408: the median seed-adjusted z-score is inactive: 0.00381.

GGUCAUAGCCUACUGUCUATT against SLC32A1: the median seed-adjusted z-score is inactive: -0.251.

Regarding GGAUCAUUACAGAGGCAAATT against DNAH9, the median seed-adjusted z-score was inactive: 0.656.

In the case of CCAACAGGGAGGAAACACATT against GH1, the median seed-adjusted z-score was inactive: -0.394.

As for AGAUCCAUGUCCCAAUAUATT against GJB5, the median seed-adjusted z-score is inactive: 0.338.

In the case of CUACUACAGUACUUCCUGATT against RNF39, the median seed-adjusted z-score is inactive: 0.297.

As for CCUUCGCUGCUACACCCAATT against LHX1, the median seed-adjusted z-score is inactive: 0.

For GCCUCACACCAGAAAUAUUTT against DLK2, the median seed-adjusted z-score was inactive: -0.695.

Take CGAGAAGUGUUAGCUCGAATT against RNF111: the median seed-adjusted z-score was inactive: -0.0687.

As for GAAUAGGCAAGGUUUUAUUTT against VAX1, the median seed-adjusted z-score is inactive: 0.937.

As for CACGUGUCCUGAAGACAAATT against CLIC2, the median seed-adjusted z-score is inactive: -0.0124.

For CCGUGAGGGAGUUUACUUUTT against GPHB5, the median seed-adjusted z-score was inactive: -0.533.

On to GGCAGACACUUACCGAAAATT against XRCC1, for which the median seed-adjusted z-score is inactive: 0.0431.

With GCAGGACGGUUUGUUUUCATT against PTGES2, the median seed-adjusted z-score was inactive: -0.02.

For the sequence AGGUCUCAGCCUAUCUCAATT against TMPRSS4, the median seed-adjusted z-score was inactive: -0.54.

For GCUCAAUUGUCGAUCUUUATT against ERO1LB, the median seed-adjusted z-score was inactive: 0.565.

As to CAGUCGUGCUAGUUCCUCATT against SNX9, the median seed-adjusted z-score was inactive: 0.684.

Consider CCAACUCUUGUGCAACUCATT against BAP1, for which the median seed-adjusted z-score was inactive: -0.374.

As for GCGGUACAGUGGAAUCUUUTT against SLC26A5, the median seed-adjusted z-score is inactive: -0.252.

In the case of GAAGAGAUAUUUACACCUUTT against CD47, the median seed-adjusted z-score is inactive: 0.0241.

As for CUUAGUCAGUGUACCCGAATT against PCDHGB5, the median seed-adjusted z-score is inactive: 0.464.

On to GAAUCCAAUGAGUUUACUATT against INPP1, for which the median seed-adjusted z-score was inactive: -0.047.

Regarding GGUUAUGCUUUCUAAUCCATT against UBE2U, the median seed-adjusted z-score was inactive: -0.0545.

For the sequence GACUACGACUGGUUCUUCATT against CSGLCA-T, the median seed-adjusted z-score was inactive: 0.146.

As for GCUCGAACCAGAAUGUCAATT against EEF2K, the median seed-adjusted z-score is inactive: 0.

As for GGAUGAUGUUUAUCGUGCUTT against ZNF507, the median seed-adjusted z-score is inactive: -0.262.

Take GAAGAGAACUUCUGCCGUATT against MST1: the median seed-adjusted z-score was active: -1.47.

As for ACCGCUAUGUCUACAUGUUTT against FADS6, the median seed-adjusted z-score is inactive: -0.637.

As to GGUCUUCGGUCUAAACUCATT against ZNF83, the median seed-adjusted z-score was inactive: 0.118.

On to AGCUAGACAUCACACCCAATT against POU6F1, for which the median seed-adjusted z-score was inactive: 0.978.

As for GAGAACCAGUUAUCCAACATT against PIR, the median seed-adjusted z-score is inactive: 0.169.

As to CGGUAUAAUCGGAAUCGGATT against MKI67IP, the median seed-adjusted z-score is inactive: 0.426.

On to GCUGUUCACCGGCAUCGAATT against TSKS, for which the median seed-adjusted z-score is inactive: -0.0409.

For ACCCAGACCCUAUCUUUGATT against NOG, the median seed-adjusted z-score is inactive: 0.328.

Regarding ACCGGAUUAUUUUUCCAAATT against LRP10, the median seed-adjusted z-score is inactive: 0.109.

Regarding AACUCGCUGUUGUACCUGATT against CPSF1, the median seed-adjusted z-score was active: 3.29.

For the sequence AAAGCAGUAUGUCAUUAAATT against ZNF146, the median seed-adjusted z-score is inactive: 0.23.

Consider GGUUAUUUUGGGACAAAGATT against BPIL2, for which the median seed-adjusted z-score is inactive: -0.63.

For CAAUUGGAAUAGUCAUCAATT against SLC10A5, the median seed-adjusted z-score is inactive: 0.539.

GGAACGAUACAAUAGUCAATT against PMS1: the median seed-adjusted z-score was inactive: 0.0538.

For the sequence CAACGUACCCAUUCCGGAATT against PRKCA, the median seed-adjusted z-score was inactive: -0.249.

Turning to GCUCGAUCCCUGCAGAUUATT against LCOR, the median seed-adjusted z-score is inactive: -0.0435.

For the sequence CAAGUACUUUCUCAAGAUUTT against FGF10, the median seed-adjusted z-score is inactive: 0.

Turning to GAGACGGUUUCCAAAUGAATT against HSPB9, the median seed-adjusted z-score is inactive: 0.262.

As to AGUGCAUGACGGAACAAUATT against PTGDS, the median seed-adjusted z-score was inactive: 0.48.

With GCCGAGUUCUGUUUCCUCUTT against COQ6, the median seed-adjusted z-score was inactive: -0.0116.

As to GAAGAACGCAUGAAACGAATT against KCNH1, the median seed-adjusted z-score is inactive: -0.0859.

With GUUUGUAACAGAUAUCGAUTT against CDK6, the median seed-adjusted z-score was inactive: 0.

Take GCCCAGGACUCAGACAAGATT against CTDSP1: the median seed-adjusted z-score was inactive: 0.28.

Regarding GGAAGAAACGGAGACUCAATT against DPF1, the median seed-adjusted z-score was inactive: 0.144.

GGCUAAGCUAUGUCAAUAATT against MTMR9: the median seed-adjusted z-score is inactive: 0.133.

On to AGGUUCAGCUGACUGGAAATT against SDSL, for which the median seed-adjusted z-score was inactive: 0.

Take AUAUGUACAUAUUCUCAUATT against THAP1: the median seed-adjusted z-score is inactive: 0.139.

For CGUGAUUUCUUGGUGCAGATT against TBC1D9B, the median seed-adjusted z-score is inactive: -0.906.

In the case of GCCCGAAUGACAGUCCUUATT against UBE2D4, the median seed-adjusted z-score is inactive: 0.232.

As to GCAGGUCUCGGGAGAAUGATT against SLC12A3, the median seed-adjusted z-score was inactive: -0.891.

Take GGAGUUACCGGUGCAGAUATT against FUT2: the median seed-adjusted z-score is inactive: -0.878.

Take GCGAUUCACAUGUAGCUUUTT against NR2C1: the median seed-adjusted z-score is inactive: 0.386.

With GGUUUGAUUUUGAUAGCGATT against XPO5, the median seed-adjusted z-score was inactive: -0.031.

Take CCUCAAUUUUUGUCUCAGATT against RASSF1: the median seed-adjusted z-score was inactive: -0.719.

With CAAAGAUUCUGACUGAUGATT against GPATCH4, the median seed-adjusted z-score is inactive: -0.519.

GCUUCUGCAUCAAUCGCAATT against MFNG: the median seed-adjusted z-score was inactive: 0.377.

Consider CCAAUGUCUUCAUAGCUGATT against DUSP27, for which the median seed-adjusted z-score was inactive: -0.162.

Take AAGCAGCUAUGGGAUUCAATT against SERPINE1: the median seed-adjusted z-score is inactive: 0.18.

For GGAAAUCUACGGGACCAUATT against PRMT8, the median seed-adjusted z-score was inactive: 0.

Take CUAUCACUGCAAAGAUUUATT against KLRC1: the median seed-adjusted z-score was inactive: 0.171.

For the sequence GAACUACCCUGGUUCAAAATT against GNA15, the median seed-adjusted z-score was inactive: 0.582.

Consider CCACGAAAGUAUGAUGCAATT against NUFIP1, for which the median seed-adjusted z-score was inactive: -0.673.

Consider GGAUAUUGCUCCUUCGUAUTT against SLC17A5, for which the median seed-adjusted z-score is inactive: -0.354.

With CCUGCAAGCUGUCAACUUUTT against PRKACA, the median seed-adjusted z-score is inactive: -0.137.

Turning to AGAGAACAGUGCAGAAAAATT against NR4A3, the median seed-adjusted z-score is inactive: -0.205.

Turning to GGAUUUCUCUGGACAAGAUTT against UTS2, the median seed-adjusted z-score is inactive: 0.0487.

Turning to CUACGAUCAUUGUUAAAAUTT against QDPR, the median seed-adjusted z-score was inactive: -0.734.

In the case of CGACGGCUGUCAUCAGUUATT against ADCK1, the median seed-adjusted z-score is inactive: -0.177.

With CGACGACGUGCAAGACCAATT against ZNF787, the median seed-adjusted z-score was inactive: -0.0628.

Consider GGAGCGGGAUAUGACAUAATT against MMAA, for which the median seed-adjusted z-score was inactive: -0.664.

For the sequence CGGGCGUAGUGAUGAGCUUTT against SLC29A4, the median seed-adjusted z-score is inactive: 0.0192.

For GAUUCUUGACAAGAAAUUUTT against PSMD11, the median seed-adjusted z-score was inactive: -0.156.

As to GCUUUGCCGUCGGACCAAATT against PKP1, the median seed-adjusted z-score was inactive: -0.99.

As for GGCCUAAUGGGUUAGCUAUTT against LRP4, the median seed-adjusted z-score is inactive: -0.00798.

Turning to GAGCAAUAGAGAUAUCGAUTT against YOD1, the median seed-adjusted z-score is inactive: 0.216.

As to UGACCUAUUUGACCAGAUUTT against MOGAT2, the median seed-adjusted z-score is inactive: -0.319.

CAUUUAUGACAAUCGGAUATT against OGT: the median seed-adjusted z-score is inactive: 0.411.

As to GCAGGAAAGUUUACACCAATT against KLF6, the median seed-adjusted z-score was inactive: -0.0398.

On to GCAAUAUUGUCCAGAUGAATT against PSMB2, for which the median seed-adjusted z-score was inactive: 0.

In the case of CAAGAGUCUCUUUAAGGAATT against ACTL8, the median seed-adjusted z-score is inactive: 0.

For the sequence GGAAGAUCUACAUCCGGAATT against KCNQ1, the median seed-adjusted z-score is inactive: -0.0525.

In the case of CCAAUGCCCUCAUGGUUAATT against MORC1, the median seed-adjusted z-score was inactive: -0.719.

Consider GGAUACCGACAAAUCAGAATT against STK17A, for which the median seed-adjusted z-score is inactive: 0.

As to CAUCAAAUAUGACAACUUUTT against GALNTL4, the median seed-adjusted z-score is inactive: 0.

For the sequence GAGUGUGUGCGAAACCUAATT against COMTD1, the median seed-adjusted z-score is inactive: 0.0487.

Regarding GAAAGAUUGUGGACAGCAATT against CACNA1G, the median seed-adjusted z-score is inactive: 0.436.
